From PubChem BioAssay AID2685 (National Center for Advancing Translational Sciences (NCATS), 2010)
Some of the results follow. Shown are side measurements of this screen, not its main read-out; they come without a call. Most of these compounds were active or inconclusive in the main read-out, so they are no random draw. Words in brackets tell the shape of the fitted curve; partial curves, single points and poor fits give uncertain potencies.

Assay: qHTS Assay for Lipid Storage Modulators in Drosophila S3 Cells;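 as to cell number change: cells counted by Cell Tracker Red CMTPX staining in the red channel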
Settings: BODIPY lipid droplet fluorescence, 18-24 h; for cell number change: measured here: cell count max response, cells fed with added oleic acid
Outline: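 Drosophila S3 cells loaded with oleic acid (400 uM, as added) and compounds at several concentrations; lipid droplets imaged by 488-nm laser-scanning cytometry, 500–530 nm intensity and object ratio to cell channel. Percent activity normalized to 20 uM Triacsin C.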

[1] = measured here: cell number channel AC50, cells fed with added oleic acid
[2] = measured here: lipid fluorescence (Fed channel) AC50, cells fed with added oleic acid

## Cc1[nH]n(-c2ccccc2)c(=O)c1C(C[N+](=O)[O-])c1ccc(F)cc1 (stereo not given)
  cell number change: -36.8%
[1]
  AC50: 5.17 µM [falling, partial curve]
[2]
  AC50: 5.8 µM [falling, single point]

## O=C(/C=C/c1cccs1)NCc1cccnc1
  cell number change: -20.2%
[1]
  AC50: 0.731 µM [falling, full curve, poor fit]
[2]
  AC50: 6.51 µM [rising, single point]

## CCOC(=O)c1cnn(-c2ccc(C)cc2)c1N
[1]
  AC50: 0.206 µM [rising, full curve, poor fit]

## COc1ccc(C(=O)NNc2ccccc2)cc1
  cell number change: 13.4%
[1]
  AC50: 6.51 µM [falling, single point]
[2]
  AC50: 0.00411 µM [rising, full curve, poor fit]

## CC1CCCC(NC(=O)CCNC(=O)c2ccc([N+](=O)[O-])cc2)C1C (stereo not given)
  cell number change: 10.8%

## COc1ccccc1OCCC(=O)OCC(=O)Nc1cc(S(=O)(=O)N2CCOCC2)ccc1Cl
  cell number change: -6.63%

## CC(C)Sc1nc2ccccc2n1CC(=O)O
  cell number change: 0.825%
[2]
  AC50: 29.1 µM [rising, single point]

## Cc1cc(C)nc(N(C#N)CN2C(=O)c3ccccc3C2=O)n1
  cell number change: -19.1%
[2]
  AC50: 6.51 µM [falling, single point]

## O=C(CCN1C(=O)C2C3C=CC(C3)C2C1=O)N1CCN(c2cccc(Cl)c2)CC1 (stereo not given)
  cell number change: 9.62%

## CC(=O)Nc1nc2c(C)cc(NC(=O)C3CCCCC3)cc2s1
  cell number change: 132%
[1]
  AC50: 29.1 µM [rising, single point]
[2]
  AC50: 5.17 µM [rising, single point]

## O=C(NNc1ccccn1)c1ccccc1CC[N+](=O)[O-]
  cell number change: 17.8%
[2]
  AC50: 25.9 µM [rising, single point]

## CCC(=O)N1CCc2cc(S(=O)(=O)NCCC(=O)NCc3ccccc3OC)ccc21
[2]
  AC50: 29.1 µM [rising, single point]

## O=C(Cc1cccc2ccccc12)Nc1cc(Cl)ccc1C(=O)O
  cell number change: 10.2%

## O=C(NCc1nc2ccccc2[nH]1)C1=C[C@H](c2ccc3c(c2)OCO3)C[C@H](OCCCCO)O1
  cell number change: 18.7%
[2]
  AC50: 0.00461 µM [rising, full curve]

## O=C(N/N=C/c1c[nH]c2ccccc12)c1ccccc1O
  cell number change: -21.7%
[2]
  AC50: 1.03 µM [falling, full curve]

## Cc1ccc(CC(=O)Nc2ccc(S(=O)(=O)Nc3ncccn3)cc2)cc1
  cell number change: 21.7%

## N#CC1=C(SCC(=O)c2ccc(Cl)cc2)NC2=C(C(=O)CCC2)C1c1ccco1 (stereo not given)
  cell number change: -25.1%
[2]
  AC50: 0.58 µM [rising, partial curve]

## CCC1CCCCN1C(=O)CCc1nnc(Cc2cc(OC)ccc2OC)o1 (stereo not given)
  cell number change: -21.2%
[2]
  AC50: 23.1 µM [falling, partial curve]

## O=C(NCCC(c1ccccc1)c1ccccc1)c1cnc2sccn2c1=O
  cell number change: -19.8%

## Cc1cc(C(=O)NNC(=O)Cc2ccc(Cl)c(Cl)c2)c(C)o1
[1]
  AC50: 0.92 µM [rising, partial curve]

## CCOC(=O)c1cccc(N/C=C/C(=O)c2ccc(OC)c(OC)c2)c1
  cell number change: -9.63%
[2]
  AC50: 20.6 µM [falling, single point]

## Cc1ccc(C(=O)N2CC(C)CC(C)C2)cc1NC1=NC2CS(=O)(=O)CC2S1 (stereo not given)
  cell number change: 25.6%

## Cc1c(N2C(=O)CSC2c2ccco2)c(=O)n(-c2ccccc2)n1C (stereo not given)
  cell number change: -22.4%
[1]
  AC50: 0.82 µM [falling, full curve, poor fit]
[2]
  AC50: 29.1 µM [falling, single point]

## CCOc1cc(C2NN=C(c3ccc(C)cc3)S2)ccc1O (stereo not given)
  cell number change: 40%
[1]
  AC50: 20.6 µM [rising, single point]
[2]
  AC50: 2.06 µM [rising, partial curve, poor fit]

## CCOc1ccc(C(=O)N/N=C/c2ccccc2[N+](=O)[O-])cc1
  cell number change: 6.37%
[2]
  AC50: 2.91 µM [rising, full curve, poor fit]

## Cc1ccccc1NC(=O)C(C)OC(=O)CNS(=O)(=O)c1ccc(C#N)cc1 (stereo not given)
[2]
  AC50: 6.51 µM [rising, single point]

## COc1ccc(OC)c(Cc2nnc(CCC(=O)NC3C4CC5CC(C4)CC3C5)o2)c1 (stereo not given)
  cell number change: -40.1%
[1]
  AC50: 18.4 µM [falling, single point]
[2]
  AC50: 10.3 µM [falling, partial curve]

## COc1cccc(CNC2CCCC2)c1
  cell number change: -3.97%
[1]
  AC50: 0.082 µM [falling, full curve, poor fit]

## N#C/C(=C/c1ccc(N2CCCCC2)o1)C(=O)NCCc1c[nH]c2ccccc12
  cell number change: -45.6%
[1]
  AC50: 20.6 µM [falling, partial curve]
[2]
  AC50: 20.6 µM [falling, partial curve]

## COc1ccc(NC(=S)c2ccccc2)cc1
  cell number change: 66.8%
[1]
  AC50: 5.8 µM [rising, full curve]
[2]
  AC50: 5.17 µM [rising, full curve, poor fit]

## O=c1[nH]c2ccsc2c(=O)n1-c1ccc(F)c(Cl)c1
  cell number change: -14.7%
[1]
  AC50: 0.461 µM [falling, full curve, poor fit]
[2]
  AC50: 0.58 µM [falling, single point]

## CCS(=O)(=O)N1Cc2ccccc2CC1C(=O)Nc1nnc(SCc2ccc(C#N)cc2)s1 (stereo not given)
  cell number change: 46.2%
[1]
  AC50: 18.4 µM [rising, single point]

## O=c1[nH]c(=O)n(C2OC(CO)C(O)C2O)cc1Br (stereo not given)
  cell number change: 1.26%
[1]
  AC50: 7.31 µM [rising, partial curve, poor fit]
[2]
  AC50: 5.8 µM [rising, full curve]

## COCCCNC(=O)c1ccc(NS(C)(=O)=O)cc1
  cell number change: -107%
[1]
  AC50: 20.6 µM [falling, partial curve]

## Fc1ccccc1NC(=S)N/N=C/c1ccccc1Br
  cell number change: 36.9%
[1]
  AC50: 2.31 µM [rising, full curve]

## Cc1nc(C)c(-c2ccn(S(=O)(=O)c3ccc(Cl)cc3)n2)o1
  cell number change: -24.8%

## O=C(CNC(=O)C1CCCCC1)NC1CCCCC1
  cell number change: 6.08%
[2]
  AC50: 32.6 µM [rising, single point]

## CCOc1ccc(CC(=O)Nc2ccc(-c3ccc4nnc(C)n4n3)cc2)cc1
[1]
  AC50: 3.66 µM [falling, partial curve]
[2]
  AC50: 5.17 µM [falling, partial curve]
